# Reference: article PMC2905391
# The chains behind the UniProt entries cited, without tags or fusion partners. Where a name states a change or a piece, a line headed by the entry shows the natural chain unless it says otherwise.
# UniProt P13020: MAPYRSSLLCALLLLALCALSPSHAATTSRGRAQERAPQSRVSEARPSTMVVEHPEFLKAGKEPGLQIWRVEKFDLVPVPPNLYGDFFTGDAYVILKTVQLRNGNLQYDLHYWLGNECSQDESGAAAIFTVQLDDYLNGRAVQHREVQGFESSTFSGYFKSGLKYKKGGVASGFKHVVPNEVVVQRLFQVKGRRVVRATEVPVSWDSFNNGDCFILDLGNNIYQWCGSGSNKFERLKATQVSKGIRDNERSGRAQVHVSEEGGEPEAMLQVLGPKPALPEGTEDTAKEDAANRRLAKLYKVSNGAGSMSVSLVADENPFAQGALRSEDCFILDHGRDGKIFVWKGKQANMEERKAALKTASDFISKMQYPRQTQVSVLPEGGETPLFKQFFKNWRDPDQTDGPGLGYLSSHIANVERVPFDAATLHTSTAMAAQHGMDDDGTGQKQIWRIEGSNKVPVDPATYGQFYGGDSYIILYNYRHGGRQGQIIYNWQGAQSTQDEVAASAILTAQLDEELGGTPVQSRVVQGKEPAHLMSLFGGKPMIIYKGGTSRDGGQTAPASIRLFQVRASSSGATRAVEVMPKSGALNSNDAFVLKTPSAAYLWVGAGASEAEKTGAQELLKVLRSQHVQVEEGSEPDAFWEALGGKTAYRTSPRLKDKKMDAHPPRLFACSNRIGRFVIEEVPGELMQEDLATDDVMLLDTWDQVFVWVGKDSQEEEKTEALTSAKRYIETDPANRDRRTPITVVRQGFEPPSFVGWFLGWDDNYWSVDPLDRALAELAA
# Biological target: T1, p55 (MAGUK protein) (mouse (endogenous in inner ear)) (UniProt P70290)
# T1 sequence: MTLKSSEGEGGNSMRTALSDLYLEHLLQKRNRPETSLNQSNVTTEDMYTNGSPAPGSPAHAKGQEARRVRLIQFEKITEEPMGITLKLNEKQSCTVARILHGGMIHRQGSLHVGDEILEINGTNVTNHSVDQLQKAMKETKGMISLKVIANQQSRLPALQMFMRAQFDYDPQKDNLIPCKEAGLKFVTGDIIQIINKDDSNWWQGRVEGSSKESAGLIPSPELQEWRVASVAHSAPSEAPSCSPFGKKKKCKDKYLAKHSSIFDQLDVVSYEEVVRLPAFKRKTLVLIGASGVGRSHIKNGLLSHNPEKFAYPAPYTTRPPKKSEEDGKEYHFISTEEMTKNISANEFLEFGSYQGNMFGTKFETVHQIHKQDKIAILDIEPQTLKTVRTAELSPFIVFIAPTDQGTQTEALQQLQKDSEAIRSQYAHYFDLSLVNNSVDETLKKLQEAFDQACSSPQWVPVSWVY
# Test: affinity purification with mass spectrometry; immunoprecipitation from mouse inner ear (cochlea P7-P8) lysate with anti-p55 antibody linked to agarose beads, normal goat IgG as negative control; NP40 lysis buffer (150 mM NaCl, 1% NP40, 50 mM Tris pH 8.0), overnight at 4°C; eluted complexes analysed by LC-MS/MS (methods: LC-MALDI TOF/TOF)
substance,measurement,value
gelsolin (from UniProt P13020),binding,binds

# Results are given in words; binding and its absence hold for the method and conditions named. Binding seen in cells or lysates may run through a third protein. Here binding means that the protein was enriched with, or labelled near, the bait; the list need not be complete.
